Like-named read-outs stand apart in the source and are kept apart here. Results are given in words; binding and its absence hold for the method and conditions named. Some results given as binding are weak or reduced against the parent protein; the word gives no strength.
Legend:
FBP17 (aa 1-617) [1] = target: T1, FBP17 (aa 1-617) (UniProt Q96RU3); assay: TIRF single-particle imaging on a flat supported lipid bilayer
T1 sequence (chain, Alexa Fluor 647 on primary amines (AF647-FBP17, in the imaging assays)): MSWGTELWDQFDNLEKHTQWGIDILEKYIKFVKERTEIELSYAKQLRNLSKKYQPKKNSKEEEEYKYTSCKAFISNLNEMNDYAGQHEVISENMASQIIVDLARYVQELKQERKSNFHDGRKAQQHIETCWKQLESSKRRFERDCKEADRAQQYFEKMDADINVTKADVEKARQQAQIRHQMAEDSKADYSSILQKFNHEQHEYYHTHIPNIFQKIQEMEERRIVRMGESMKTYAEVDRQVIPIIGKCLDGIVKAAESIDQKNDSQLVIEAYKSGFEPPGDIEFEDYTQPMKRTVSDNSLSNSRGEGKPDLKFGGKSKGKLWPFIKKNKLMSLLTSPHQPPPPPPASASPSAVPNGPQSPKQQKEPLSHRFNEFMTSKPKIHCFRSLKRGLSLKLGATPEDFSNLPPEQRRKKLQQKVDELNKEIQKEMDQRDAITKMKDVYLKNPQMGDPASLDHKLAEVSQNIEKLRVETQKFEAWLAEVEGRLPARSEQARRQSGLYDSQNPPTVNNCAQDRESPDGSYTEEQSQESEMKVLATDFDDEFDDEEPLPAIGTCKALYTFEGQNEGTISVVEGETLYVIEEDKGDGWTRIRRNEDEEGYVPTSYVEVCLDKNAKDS

By UniProt entry, the sequences of proteins in these tests, tags left out.
UniProt O00401: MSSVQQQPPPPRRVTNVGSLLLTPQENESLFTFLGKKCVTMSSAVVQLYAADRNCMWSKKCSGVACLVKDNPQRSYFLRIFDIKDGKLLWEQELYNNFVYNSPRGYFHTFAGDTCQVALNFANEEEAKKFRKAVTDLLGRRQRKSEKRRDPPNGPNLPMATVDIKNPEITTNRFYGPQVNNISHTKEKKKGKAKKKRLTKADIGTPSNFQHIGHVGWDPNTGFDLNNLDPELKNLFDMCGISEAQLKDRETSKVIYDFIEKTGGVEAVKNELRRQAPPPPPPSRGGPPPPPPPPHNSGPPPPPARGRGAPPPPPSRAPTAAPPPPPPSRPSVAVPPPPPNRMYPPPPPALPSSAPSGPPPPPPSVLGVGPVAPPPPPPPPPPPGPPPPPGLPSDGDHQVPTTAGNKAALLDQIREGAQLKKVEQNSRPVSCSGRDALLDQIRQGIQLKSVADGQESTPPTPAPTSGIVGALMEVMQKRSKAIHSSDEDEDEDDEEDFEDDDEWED

FBP17 (aa 1-617) [2] = target: T1, FBP17 (aa 1-617)

binding (FBP17 (aa 1-617) [1]): binds
binding (FBP17 (aa 1-617) [2]): binds
Substance: N-WASP (aa 1-505), full length, auto-inhibited (from UniProt O00401 1-505)

Reference: article doi:10.1101/2024.04.25.591054
